Test results published in paper PMC8297771, “A highly potent and safe pyrrolopyridine-based allosteric HIV-1 integrase inhibitor targeting host LEDGF/p75-integrase interaction site” (PLoS Pathogens, 2021).

System: HFL-1 cells
Assay: cells
Conditions: Homo sapiens, HFL1

How did the IC50 turn out when `CN[C@@H]1C[C@H]2O[C@@](C)([C@@H]1OC)n1c3ccccc3c3c4c(c5c6ccccc6n2c5c31)C(=O)NC4` [Staurosporine] was run?
The IC50 was 0.4 nM.
